According to article PMC11628727:
No constants are given. Whether binding was seen depends on the method and setting. Binding seen in cells or lysates may run through a third protein. Some binding calls cover weakened binding; strength is not graded here.

Sequences of proteins named here, by UniProt entry; tags and fusion partners are left off. A change or cut given only in a name is not applied to a line headed by its entry.
UniProt O75376: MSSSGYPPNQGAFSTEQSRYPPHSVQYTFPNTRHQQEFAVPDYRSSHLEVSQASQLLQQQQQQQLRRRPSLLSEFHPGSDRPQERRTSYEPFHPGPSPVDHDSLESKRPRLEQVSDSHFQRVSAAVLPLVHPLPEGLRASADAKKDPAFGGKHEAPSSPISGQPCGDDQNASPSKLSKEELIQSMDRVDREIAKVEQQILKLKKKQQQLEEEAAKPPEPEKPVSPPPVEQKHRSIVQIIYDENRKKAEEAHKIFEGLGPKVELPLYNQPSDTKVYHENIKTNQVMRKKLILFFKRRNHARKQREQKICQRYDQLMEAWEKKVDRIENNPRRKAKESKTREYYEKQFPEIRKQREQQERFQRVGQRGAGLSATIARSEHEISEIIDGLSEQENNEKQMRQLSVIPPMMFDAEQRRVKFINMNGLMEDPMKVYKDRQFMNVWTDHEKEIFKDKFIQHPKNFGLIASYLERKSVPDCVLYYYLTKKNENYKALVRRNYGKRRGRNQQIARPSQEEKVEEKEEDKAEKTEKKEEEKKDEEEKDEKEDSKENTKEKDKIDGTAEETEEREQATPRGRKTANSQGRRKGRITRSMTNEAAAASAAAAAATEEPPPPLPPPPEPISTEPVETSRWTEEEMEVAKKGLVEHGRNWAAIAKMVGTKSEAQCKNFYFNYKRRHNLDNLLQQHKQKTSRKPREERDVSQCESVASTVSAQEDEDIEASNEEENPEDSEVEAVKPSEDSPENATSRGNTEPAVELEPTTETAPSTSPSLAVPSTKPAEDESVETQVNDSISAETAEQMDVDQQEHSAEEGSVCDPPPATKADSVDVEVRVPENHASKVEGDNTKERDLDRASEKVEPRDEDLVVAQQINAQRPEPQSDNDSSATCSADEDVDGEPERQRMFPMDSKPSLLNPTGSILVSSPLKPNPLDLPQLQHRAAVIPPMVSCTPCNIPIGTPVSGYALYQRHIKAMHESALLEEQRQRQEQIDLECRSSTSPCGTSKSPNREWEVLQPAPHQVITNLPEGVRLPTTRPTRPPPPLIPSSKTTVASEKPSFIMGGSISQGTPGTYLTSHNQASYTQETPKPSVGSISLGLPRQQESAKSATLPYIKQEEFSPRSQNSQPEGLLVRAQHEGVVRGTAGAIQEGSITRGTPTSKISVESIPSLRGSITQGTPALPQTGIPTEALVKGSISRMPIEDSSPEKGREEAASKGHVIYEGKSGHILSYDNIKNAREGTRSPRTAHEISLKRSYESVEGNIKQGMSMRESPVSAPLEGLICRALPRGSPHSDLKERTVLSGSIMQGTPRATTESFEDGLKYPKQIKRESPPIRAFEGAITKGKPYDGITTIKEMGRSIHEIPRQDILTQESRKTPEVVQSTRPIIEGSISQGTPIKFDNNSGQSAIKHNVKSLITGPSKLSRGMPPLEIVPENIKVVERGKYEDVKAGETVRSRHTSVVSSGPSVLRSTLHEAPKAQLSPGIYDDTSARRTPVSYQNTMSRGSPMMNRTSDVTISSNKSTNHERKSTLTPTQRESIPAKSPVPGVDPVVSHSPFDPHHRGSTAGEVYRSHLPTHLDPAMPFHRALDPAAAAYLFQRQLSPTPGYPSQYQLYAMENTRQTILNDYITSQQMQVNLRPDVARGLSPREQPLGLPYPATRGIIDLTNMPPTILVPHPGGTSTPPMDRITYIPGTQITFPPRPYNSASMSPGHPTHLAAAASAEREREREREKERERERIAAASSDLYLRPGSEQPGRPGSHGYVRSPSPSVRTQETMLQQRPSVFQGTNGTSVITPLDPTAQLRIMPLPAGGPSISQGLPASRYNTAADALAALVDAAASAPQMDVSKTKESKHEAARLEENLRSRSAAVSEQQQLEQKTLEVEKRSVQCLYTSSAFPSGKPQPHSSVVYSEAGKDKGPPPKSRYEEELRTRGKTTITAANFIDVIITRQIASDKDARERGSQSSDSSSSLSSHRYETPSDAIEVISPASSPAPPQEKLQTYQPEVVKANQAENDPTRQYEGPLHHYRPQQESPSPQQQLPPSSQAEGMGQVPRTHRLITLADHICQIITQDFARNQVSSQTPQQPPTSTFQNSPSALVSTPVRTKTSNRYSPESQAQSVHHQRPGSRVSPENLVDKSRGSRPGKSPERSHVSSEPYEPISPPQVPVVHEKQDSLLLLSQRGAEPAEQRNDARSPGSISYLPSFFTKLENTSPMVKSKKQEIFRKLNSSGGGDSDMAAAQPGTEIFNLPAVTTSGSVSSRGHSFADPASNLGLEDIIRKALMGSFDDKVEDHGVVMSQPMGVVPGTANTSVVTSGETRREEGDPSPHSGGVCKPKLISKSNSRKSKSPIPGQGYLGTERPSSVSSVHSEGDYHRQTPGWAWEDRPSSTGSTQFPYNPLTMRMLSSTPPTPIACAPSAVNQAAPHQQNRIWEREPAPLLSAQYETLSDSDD

Tests used:
[1] = target: T1, Rev‐erbα (human (endogenous in primary NP cells)) (UniProt P20393); assay: condition: only NP cells cultured with rhIL1β for 2 days (heme depletion); co-IP; as a1, but NP cells exposed to rhIL1β for 2 days without hemin (heme depletion)
T1 sequence: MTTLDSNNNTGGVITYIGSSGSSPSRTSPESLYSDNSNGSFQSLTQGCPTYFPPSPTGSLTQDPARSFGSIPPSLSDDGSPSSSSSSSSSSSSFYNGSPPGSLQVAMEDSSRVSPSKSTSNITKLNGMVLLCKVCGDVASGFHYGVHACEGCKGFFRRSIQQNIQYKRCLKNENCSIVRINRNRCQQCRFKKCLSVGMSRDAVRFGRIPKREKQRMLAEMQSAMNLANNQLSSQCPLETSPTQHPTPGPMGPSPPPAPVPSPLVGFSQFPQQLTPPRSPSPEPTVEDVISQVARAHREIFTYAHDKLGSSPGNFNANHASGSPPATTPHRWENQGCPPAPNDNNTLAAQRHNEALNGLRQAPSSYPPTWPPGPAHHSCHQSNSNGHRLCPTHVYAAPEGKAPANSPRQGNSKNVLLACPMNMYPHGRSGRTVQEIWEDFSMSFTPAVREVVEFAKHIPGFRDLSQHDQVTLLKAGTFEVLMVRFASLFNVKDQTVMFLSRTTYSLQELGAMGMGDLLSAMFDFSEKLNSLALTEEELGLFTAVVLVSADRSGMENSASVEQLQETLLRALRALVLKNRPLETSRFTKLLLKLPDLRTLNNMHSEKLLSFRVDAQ

[2] = target: T1, Rev‐erbα (human (endogenous in primary NP cells)); assay: co-IP; IP with 1 μg Rev‐erbα antibody (control IgG) from whole lysates of dexamethasone-synchronised human primary NP cells, 4°C overnight, Protein G agarose beads, western blot; control and rhIL‐1β + hemin groups; lysis buffer 50 mM Tris pH 7.5, 150 mM NaCl, 2 mM EDTA, 1.5% NP40

binding [1]: no binding
binding [2]: binds
Substance: nuclear receptor co‐repressor (NCoR) and histone deacetylase 3 (HDAC3) complex (from UniProt O75376 1-2440; O15379 1-428)
